# Assay results published in patent EP0163240A2, “Dihydroimidazo[1,2-a]pyrimidine derivatives, methods of preparing said compounds and pharmaceutical compositions constaining said compounds” (priority 1984, dated 1985).
# Where a name gives a salt, the structure may show the parent alone. At least one structure is not confirmed: it was looked up by name or label, or the drawing left a doubt.
# Tested on: Trachea of guinea pig
# Assay: Anticholinergic activity (ACh-contracted tracheal strip chain preparation)
# Details: 10^-7-10^-5M
# Description: Each of 30 mg/kg of test compounds A and Q was orally administered to five male spontaneously hypertensive rats and the blood pressure was measured by the tail cuff method. The blood pressure lowering value after 1 hour administration of test compound A was 48 mmHg and that value after 5 hours administration of test compound Q was 64 mmHg. Pharmacological experiment 6: Anticholinergic activity
# Trachea of guinea pig, weighing 380-550 g, was isolated and prepared its strip chain preparation. The preparation was mounted in organ bath filled with Krebs-Henseleit solution gassed with 95% 02 and 5% CO2. Length of the preparation was measured by isometric transducer (MEC, ME-4012). The preparation was contracted by 10^-6 M of acetylcholine (ACh) and then, test compounds were added cumulatively into the bath to observe relaxant effect.
# Pharmacological experiment 7: Toxicity
smiles,measurement,value
"COC(=O)C1=C(C)Nc2ncc(CN3CCCC3)n2C1c1cccc([N+](=O)[O-])c1 (stereo not shown) [Compound P, Methyl 7-methyl-5-(3-nitrophenyl)-3-(1-pyrrolidinylmethyl)-5,8-dihydroimidazo[1,2-a] pyrimidine-6-carboxylate dihydrochloride]",relaxant effect on ACh-contracted preparation,relaxed ACh-contracted preparation in a concentration-dependent manner
